This passage reports AC50 and cell number change results from PubChem BioAssay AID2685 (National Center for Advancing Translational Sciences (NCATS), 2010).

Some of the results follow. The main result of the screen is listed elsewhere. These columns were measured beside it and carry no call. Most of these compounds were active or inconclusive in the main read-out, so they are no random draw. Words in brackets tell the shape of the fitted curve; partial curves, single points and poor fits give uncertain potencies.

The assay can be described thus: qHTS Assay for Lipid Storage Modulators in Drosophila S3 Cells.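 As to cell number change: cells counted by Cell Tracker Red CMTPX staining in the red channel.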 To be noted: BODIPY lipid droplet fluorescence, 18-24 h; for cell number change: measured here: cell count max response, cells fed with added oleic acid. An outline of the steps: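 Laser-scanning cytometry quantifies lipid droplet accumulation (500–530 nm total intensity; droplet/cell object ratio) in oleic acid-fed (400 uM added) Drosophila S3 cells treated with a concentration series. 20 uM Triacsin C defined 100% inhibition.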
(Quantitative high-throughput screening tests each substance at several concentrations.)

The mark [1] stands for this setting: measured here: cell number channel AC50, cells fed with added oleic acid.
Where [2] appears, read: measured here: lipid fluorescence (Fed channel) AC50, cells fed with added oleic acid.

One may read the AC50 as the midpoint of the concentration-response curve, whichever way the signal moves. Read a low AC50 as activity at low concentration. Regarding `Nc1nc2n(n1)C(=O)CC(c1ccccc1[N+](=O)[O-])N2` (configuration not stated), the AC50 runs as follows: under setting [1], 2.91 µM [falling, partial curve]; under setting [2], 0.092 µM [falling, full curve, poor fit].

Take `N/N=C(\c1ccccc1)C12CN3CN(CN(C3)C1)C2`: the cell number change was 46%. Also, the AC50 under setting [1] was 16.4 µM [rising, partial curve].

On to `CC1CCCC(C)N1/N=C/c1cc(Br)cc(Br)c1O` (configuration not stated), for which the cell number change came to 17.5%. The concentration at half-maximal activity (AC50) under setting [2] was 2.06 µM [rising, full curve].

As for `CCOC(=O)CCC(=O)O[C@H]1[C@H](O[C@@H]2[C@@H](C)[C@H](O[C@H]3C[C@@](C)(OC)[C@@H](O)[C@H](C)O3)[C@@H](C)C(=O)O[C@H](CC)[C@@](C)(O)[C@H](O)[C@@H](C)C(=O)[C@H](C)C[C@@]2(C)O)O[C@H](C)C[C@@H]1N(C)C`, the half-maximal activity concentration (AC50) under setting [2] was 0.461 µM [rising, full curve, poor fit].

Take `O=C(/C=C/Nc1ccc([N+](=O)[O-])cc1)c1ccc(Br)cc1`: the cell number change is -30.4%. Also, the AC50 under setting [1] was 8.2 µM [falling, partial curve]. Besides, under setting [2], the AC50 was 1.16 µM [rising, full curve, poor fit].

Consider `O=C(NC12CC3CC(CC(C3)C1)C2)c1cccc(OC(F)F)c1`, for which the cell number change was -31.3%. For the same compound, the half-maximal activity concentration (AC50) under setting [1] is 9.2 µM [falling, single point]. In addition, the concentration at half-maximal activity (AC50) under setting [2] is 16.4 µM [falling, partial curve, poor fit].

Take `Clc1ccc(SCCCCN2CCNCC2)cc1`: the cell number change is -0.402%.

With `COC(=O)c1cc(Cl)c(NC(=O)c2ccc(F)cc2)cc1OC`, the cell number change was -19.9%.

Consider `Cc1cc(-c2ccccc2)c(C#N)c(=S)[nH]1`, for which the cell number change is -22.9%. Moreover, under setting [1], the half-maximal activity concentration (AC50) is 0.411 µM [rising, full curve].

In the case of `N#Cc1cc2c(N)c(C(=O)Nc3ccccc3)sc2nc1N`, the cell number change was 24.9%. The AC50 under setting [1] was 0.259 µM [rising, full curve, poor fit]. Further, the concentration at half-maximal activity (AC50) under setting [2] was 0.259 µM [rising, full curve].

On to `O=C(/C=C/c1ccccc1)Nc1ccc2c(c1)C(=O)NC2=O`, for which the cell number change was found to be 13.8%. Moreover, the AC50 under setting [2] was 0.206 µM [rising, full curve].

Consider `CCCC(C)C(=O)Nc1ccc(Cl)cc1Cl` (configuration not stated), for which the cell number change turned out to be 4.04%. In addition, under setting [2], the concentration at half-maximal activity (AC50) was 16.4 µM [rising, single point].

On to `O=C(COc1cc(Cl)ccc1Cl)Nc1ccc2[nH]c(=O)[nH]c2c1`, for which the cell number change was -3%.

`CC(=O)c1cnc(-c2cccc(Cl)c2)s1`: the cell number change was -17.1%. Also, the AC50 under setting [2] is 0.651 µM [falling, partial curve, poor fit].

For the compound `O=C(Nc1cccc2c1C(=O)NC2=O)c1cccc(N2C(=O)CCC2=O)c1`, the cell number change was -31.4%. Also, the concentration at half-maximal activity (AC50) under setting [1] is 6.51 µM [falling, single point]. Moreover, the half-maximal activity concentration (AC50) under setting [2] is 0.00651 µM [falling, full curve, poor fit].

`O=C(c1cc(-c2ccc(Cl)c(Cl)c2)on1)N1CCOCC1`: the cell number change worked out at 17.5%. The AC50 under setting [2] was 29.1 µM [rising, single point].

`CN(Cc1ccco1)S(=O)(=O)c1cc(F)ccc1CN1C(=O)c2cccnc2C1=O`: the cell number change was -7.03%.

In the case of `Cn1ncc2c(Nc3ccc(Cl)c(Cl)c3)ncnc21`, the cell number change was -17.8%.

Turning to `Cc1ccc(-n2nnnc2SCc2ccccn2)cc1C`, the cell number change came to 43.9%. For the same compound, under setting [1], the concentration at half-maximal activity (AC50) was 1.84 µM [rising, full curve, poor fit].

Consider `CCOC(=O)c1cccc(OCC(O)CNCCOc2ccccc2F)c1` (configuration not stated), for which the cell number change was 7.08%. Further, the AC50 under setting [2] was 7.31 µM [rising, single point].

`NC(=O)N=Nc1c(O)[nH]c2c(Br)cc(Br)cc12`: the AC50 under setting [2] is 6.51 µM [rising, single point].

With `CC(OC(=O)/C=C/c1cccc(F)c1)C(=O)NC1CCCCC1C` (configuration not stated), the cell number change turned out to be 37.8%. Further, the AC50 under setting [1] was 29.1 µM [rising, single point].

Regarding `CCSc1nc2ccccc2c(=O)n1CCc1ccc(OC)c(OC)c1`, the cell number change was determined as 0.486%. The AC50 under setting [2] is 0.0326 µM [rising, partial curve, poor fit].

Regarding `COCCCn1c(SCC(=O)n2c(C)c(C)c3ccccc32)nnc1-c1ccoc1C`, the cell number change is -35.2%. The concentration at half-maximal activity (AC50) under setting [1] is 0.00651 µM [falling, full curve, poor fit].

In the case of `CSCCC(NC(N)=O)C(=O)Nc1cccc(S(=O)(=O)N2CCOCC2)c1` (configuration not stated), the cell number change was determined as 117%.

Turning to `O=S(=O)(NCC1CCCO1)c1ccc(Oc2ccccc2)cc1` (configuration not stated), the cell number change is -23.1%. Under setting [2], the concentration at half-maximal activity (AC50) is 32.6 µM [falling, single point].

As for `Cc1cccc(NC(=O)Nc2cccc(Oc3c(F)c(F)c(F)c(F)c3F)c2)c1`, the cell number change is -34.8%. Further, under setting [1], the AC50 was 13 µM [falling, partial curve, poor fit]. In addition, under setting [2], the AC50 was 29.1 µM [falling, single point].

Regarding `O=C1c2ccccc2C(=O)N1CCN1CCOCC1`, the cell number change stood at 3.24%.

As to `CC1CCN(C(=O)c2ccc(NC(=O)C3CCCO3)cc2)CC1` (configuration not stated), the cell number change amounted to 147%. For the same compound, under setting [1], the concentration at half-maximal activity (AC50) is 20.6 µM [rising, partial curve]. Under setting [2], the half-maximal activity concentration (AC50) is 29.1 µM [rising, single point].

Take `O=C(N/N=C/c1ccc2c(c1)OCO2)c1ccc(Cn2cc([N+](=O)[O-])cn2)o1`: the cell number change came to 37.9%. Moreover, the AC50 under setting [1] is 13 µM [rising, partial curve, poor fit]. Further, the AC50 under setting [2] was 0.00461 µM [rising, full curve, poor fit].

For `COc1ccccc1CNC(=O)COC(=O)C1CC1`, the cell number change amounted to 22.5%. Besides, the concentration at half-maximal activity (AC50) under setting [2] is 0.651 µM [rising, single point].

Regarding `CCOC(=O)c1c(C)n(C)c2ccc(OC(C)C(=O)OC)cc12` (configuration not stated), the cell number change came to 0.405%.

Take `Nc1cc(N)nc(SCC(=O)NNC(=O)c2ccc(Cl)cc2)n1`: the cell number change is 34.3%.

As for `Cc1cc(F)ccc1NC(=O)C1CCN(S(=O)(=O)c2ccc3c(c2)CCCC(=O)N3)CC1`, the cell number change was 13%. For the same compound, the AC50 under setting [2] was 29.1 µM [rising, single point].

Regarding `CCOc1ccccc1N1CCN(C(=O)[C@@H]2CCCN2C2=NS(=O)(=O)c3ccccc32)CC1`, the cell number change is -6.64%. Moreover, the AC50 under setting [2] is 0.731 µM [falling, full curve, poor fit].

As for `COc1cc(/C=C(\C#N)C(=O)NCC2CCCO2)ccc1OC(C)C` (configuration not stated), the cell number change is -5.75%.

As for `CC(C)(C)NC(=O)CN(Cc1ccc(F)cc1)C(=O)Cn1nnc(-c2ccc(F)cc2)n1`, the cell number change is -29%.

On to `CC1=C(C(=O)OC(C)C)C(c2cccc(F)c2)N2C(=O)C(C)SC2=N1` (configuration not stated), for which the AC50 under setting [1] was 0.291 µM [rising, full curve].

Take `CS(=O)(=O)c1ccc2nnn(OCC(=O)Nc3ccc(Br)cc3Br)c2c1`: the cell number change was 44.9%.

On to `c1ccc(-c2ccccc2OCCCCn2ccnc2)cc1`, for which the cell number change is -38.6%. Besides, the half-maximal activity concentration (AC50) under setting [1] is 8.2 µM [falling, partial curve, poor fit].
